{"sequences": {"note": "Protein sequences, listed by entry. Tags and fused reporters are not part of them. Lines headed by an entry give the natural chain unless they say otherwise; changes in a name come on top.", "UniProt Q02809": "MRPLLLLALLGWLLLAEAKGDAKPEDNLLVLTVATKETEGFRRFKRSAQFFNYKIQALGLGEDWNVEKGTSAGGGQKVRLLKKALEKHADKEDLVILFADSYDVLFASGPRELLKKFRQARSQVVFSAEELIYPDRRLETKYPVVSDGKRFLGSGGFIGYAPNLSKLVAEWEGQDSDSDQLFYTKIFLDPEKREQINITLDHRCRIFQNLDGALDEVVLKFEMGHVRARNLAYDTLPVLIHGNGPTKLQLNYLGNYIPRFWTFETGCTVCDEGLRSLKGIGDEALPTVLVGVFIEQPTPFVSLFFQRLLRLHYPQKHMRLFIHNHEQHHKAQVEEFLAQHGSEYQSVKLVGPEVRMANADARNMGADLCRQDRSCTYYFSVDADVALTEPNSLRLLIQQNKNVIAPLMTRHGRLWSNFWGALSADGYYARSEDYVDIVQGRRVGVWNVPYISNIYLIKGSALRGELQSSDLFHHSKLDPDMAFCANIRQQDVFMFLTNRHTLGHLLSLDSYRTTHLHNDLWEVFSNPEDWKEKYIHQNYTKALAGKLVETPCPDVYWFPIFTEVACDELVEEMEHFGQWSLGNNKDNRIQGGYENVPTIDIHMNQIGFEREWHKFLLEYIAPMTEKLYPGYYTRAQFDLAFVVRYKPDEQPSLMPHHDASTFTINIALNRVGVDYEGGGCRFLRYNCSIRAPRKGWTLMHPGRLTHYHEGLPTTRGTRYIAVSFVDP", "UniProt Q04941": "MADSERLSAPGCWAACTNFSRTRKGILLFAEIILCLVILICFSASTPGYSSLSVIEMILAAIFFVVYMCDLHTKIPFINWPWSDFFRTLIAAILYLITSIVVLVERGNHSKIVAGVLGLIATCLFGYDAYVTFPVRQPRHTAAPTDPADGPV", "UniProt O00469": "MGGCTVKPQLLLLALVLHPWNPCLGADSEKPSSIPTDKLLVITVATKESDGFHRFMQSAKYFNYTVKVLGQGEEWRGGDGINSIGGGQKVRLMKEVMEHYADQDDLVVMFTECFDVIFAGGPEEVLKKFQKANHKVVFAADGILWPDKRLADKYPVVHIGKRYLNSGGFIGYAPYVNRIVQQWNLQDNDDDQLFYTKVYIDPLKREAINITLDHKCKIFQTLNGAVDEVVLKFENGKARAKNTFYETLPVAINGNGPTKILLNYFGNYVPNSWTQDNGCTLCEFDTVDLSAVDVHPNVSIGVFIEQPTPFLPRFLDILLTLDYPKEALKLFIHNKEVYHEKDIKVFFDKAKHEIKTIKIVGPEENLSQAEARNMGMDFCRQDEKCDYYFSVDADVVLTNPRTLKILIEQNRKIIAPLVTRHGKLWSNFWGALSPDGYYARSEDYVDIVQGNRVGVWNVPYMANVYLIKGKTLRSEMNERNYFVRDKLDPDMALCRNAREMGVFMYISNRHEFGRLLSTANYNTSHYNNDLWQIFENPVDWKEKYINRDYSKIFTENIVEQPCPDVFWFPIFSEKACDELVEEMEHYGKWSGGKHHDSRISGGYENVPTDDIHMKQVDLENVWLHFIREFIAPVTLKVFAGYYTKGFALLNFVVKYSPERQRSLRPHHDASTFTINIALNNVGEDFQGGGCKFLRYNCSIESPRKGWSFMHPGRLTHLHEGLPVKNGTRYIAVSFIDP", "UniProt Q9H2U2": "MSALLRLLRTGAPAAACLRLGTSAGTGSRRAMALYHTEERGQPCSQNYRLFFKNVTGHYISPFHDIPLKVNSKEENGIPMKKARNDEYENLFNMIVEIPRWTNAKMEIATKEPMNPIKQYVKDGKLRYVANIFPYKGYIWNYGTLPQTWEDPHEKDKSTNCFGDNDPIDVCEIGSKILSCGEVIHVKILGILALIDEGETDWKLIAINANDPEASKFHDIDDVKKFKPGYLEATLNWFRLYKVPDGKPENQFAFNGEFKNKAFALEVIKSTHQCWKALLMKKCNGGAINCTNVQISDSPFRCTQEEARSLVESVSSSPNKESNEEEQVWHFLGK", "UniProt Q9Y244": "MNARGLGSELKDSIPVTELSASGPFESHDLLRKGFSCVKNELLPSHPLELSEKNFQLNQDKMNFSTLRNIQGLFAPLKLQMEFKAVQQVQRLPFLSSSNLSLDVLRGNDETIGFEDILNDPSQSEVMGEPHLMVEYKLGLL", "UniProt P09884": "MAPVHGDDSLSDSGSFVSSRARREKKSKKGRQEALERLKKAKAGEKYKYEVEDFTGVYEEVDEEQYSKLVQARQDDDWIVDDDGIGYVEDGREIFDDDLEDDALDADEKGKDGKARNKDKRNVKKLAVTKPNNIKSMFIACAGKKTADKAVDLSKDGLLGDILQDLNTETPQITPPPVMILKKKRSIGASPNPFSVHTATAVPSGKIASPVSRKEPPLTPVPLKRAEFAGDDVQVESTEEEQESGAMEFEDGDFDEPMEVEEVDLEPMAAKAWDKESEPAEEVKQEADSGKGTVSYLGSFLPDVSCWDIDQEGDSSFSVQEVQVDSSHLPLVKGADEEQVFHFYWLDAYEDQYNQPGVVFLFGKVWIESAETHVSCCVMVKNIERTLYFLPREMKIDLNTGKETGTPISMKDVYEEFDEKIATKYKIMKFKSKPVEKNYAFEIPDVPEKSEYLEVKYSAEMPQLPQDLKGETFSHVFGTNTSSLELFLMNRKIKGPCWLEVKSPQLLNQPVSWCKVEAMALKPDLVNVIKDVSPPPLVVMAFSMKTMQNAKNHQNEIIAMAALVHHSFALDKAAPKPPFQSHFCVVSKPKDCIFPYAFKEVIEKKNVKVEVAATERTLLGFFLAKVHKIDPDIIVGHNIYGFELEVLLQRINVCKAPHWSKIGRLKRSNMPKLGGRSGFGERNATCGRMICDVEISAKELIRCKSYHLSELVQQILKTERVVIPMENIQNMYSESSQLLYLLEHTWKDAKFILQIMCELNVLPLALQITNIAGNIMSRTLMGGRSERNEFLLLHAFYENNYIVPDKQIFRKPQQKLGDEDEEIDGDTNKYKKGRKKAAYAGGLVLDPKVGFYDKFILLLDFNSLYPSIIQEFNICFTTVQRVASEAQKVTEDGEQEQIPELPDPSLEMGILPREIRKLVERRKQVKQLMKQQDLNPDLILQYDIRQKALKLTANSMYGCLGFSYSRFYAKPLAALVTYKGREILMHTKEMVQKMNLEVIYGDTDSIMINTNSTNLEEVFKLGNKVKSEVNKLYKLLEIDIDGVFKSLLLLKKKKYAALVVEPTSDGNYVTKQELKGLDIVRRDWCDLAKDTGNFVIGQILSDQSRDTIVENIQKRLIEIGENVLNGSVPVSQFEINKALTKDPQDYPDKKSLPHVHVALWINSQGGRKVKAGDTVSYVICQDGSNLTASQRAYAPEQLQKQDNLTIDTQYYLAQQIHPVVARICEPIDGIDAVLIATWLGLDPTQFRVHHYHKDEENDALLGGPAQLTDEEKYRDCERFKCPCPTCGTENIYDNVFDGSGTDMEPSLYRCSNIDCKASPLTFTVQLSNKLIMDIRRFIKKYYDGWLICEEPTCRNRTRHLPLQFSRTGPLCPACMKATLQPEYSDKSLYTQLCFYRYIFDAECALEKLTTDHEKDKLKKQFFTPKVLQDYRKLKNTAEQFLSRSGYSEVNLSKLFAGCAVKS", "UniProt Q8N490": "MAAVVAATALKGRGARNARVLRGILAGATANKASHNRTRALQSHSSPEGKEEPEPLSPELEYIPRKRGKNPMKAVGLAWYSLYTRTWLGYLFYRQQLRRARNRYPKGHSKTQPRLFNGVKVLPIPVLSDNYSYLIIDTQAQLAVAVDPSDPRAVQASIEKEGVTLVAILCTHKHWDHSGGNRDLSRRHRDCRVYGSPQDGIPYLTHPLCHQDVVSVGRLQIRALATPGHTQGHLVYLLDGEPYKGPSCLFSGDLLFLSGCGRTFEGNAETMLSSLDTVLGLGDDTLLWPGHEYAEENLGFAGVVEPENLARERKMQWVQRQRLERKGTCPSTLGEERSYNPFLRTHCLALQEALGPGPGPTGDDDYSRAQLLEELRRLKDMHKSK", "UniProt Q9HBL7": "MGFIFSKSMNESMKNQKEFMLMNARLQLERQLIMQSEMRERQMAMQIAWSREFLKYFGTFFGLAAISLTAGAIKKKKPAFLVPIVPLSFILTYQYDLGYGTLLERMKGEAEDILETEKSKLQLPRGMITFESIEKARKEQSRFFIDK", "UniProt O00411": "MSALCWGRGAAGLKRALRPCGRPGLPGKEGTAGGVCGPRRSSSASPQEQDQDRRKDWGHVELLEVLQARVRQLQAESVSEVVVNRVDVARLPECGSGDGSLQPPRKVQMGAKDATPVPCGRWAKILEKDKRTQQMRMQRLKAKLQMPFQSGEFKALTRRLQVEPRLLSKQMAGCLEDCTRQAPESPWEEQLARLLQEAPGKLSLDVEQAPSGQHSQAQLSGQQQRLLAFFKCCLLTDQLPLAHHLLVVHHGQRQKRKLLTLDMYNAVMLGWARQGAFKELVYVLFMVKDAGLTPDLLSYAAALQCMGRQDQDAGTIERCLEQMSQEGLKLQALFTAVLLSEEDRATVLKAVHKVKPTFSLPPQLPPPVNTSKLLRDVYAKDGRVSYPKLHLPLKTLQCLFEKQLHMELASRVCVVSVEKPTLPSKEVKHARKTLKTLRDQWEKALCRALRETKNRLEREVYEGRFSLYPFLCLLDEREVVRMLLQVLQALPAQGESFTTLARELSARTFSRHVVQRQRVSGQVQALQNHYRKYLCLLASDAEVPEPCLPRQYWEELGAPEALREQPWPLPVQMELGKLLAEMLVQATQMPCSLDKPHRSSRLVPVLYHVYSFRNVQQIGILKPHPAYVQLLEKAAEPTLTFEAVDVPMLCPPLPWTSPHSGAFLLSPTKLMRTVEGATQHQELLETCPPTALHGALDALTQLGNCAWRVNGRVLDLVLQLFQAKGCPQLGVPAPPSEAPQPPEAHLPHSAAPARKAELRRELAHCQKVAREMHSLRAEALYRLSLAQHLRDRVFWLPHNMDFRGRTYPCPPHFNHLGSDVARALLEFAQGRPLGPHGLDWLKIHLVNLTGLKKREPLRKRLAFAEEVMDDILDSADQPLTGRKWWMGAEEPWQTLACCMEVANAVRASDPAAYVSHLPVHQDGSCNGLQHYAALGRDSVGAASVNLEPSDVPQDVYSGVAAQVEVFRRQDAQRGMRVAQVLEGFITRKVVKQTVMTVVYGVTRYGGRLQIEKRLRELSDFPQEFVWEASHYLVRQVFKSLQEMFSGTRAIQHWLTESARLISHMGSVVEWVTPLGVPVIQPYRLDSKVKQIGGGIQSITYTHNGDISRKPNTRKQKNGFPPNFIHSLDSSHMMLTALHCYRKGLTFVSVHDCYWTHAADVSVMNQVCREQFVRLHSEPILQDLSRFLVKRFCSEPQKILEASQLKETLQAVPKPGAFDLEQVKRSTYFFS", "UniProt Q9HAB8": "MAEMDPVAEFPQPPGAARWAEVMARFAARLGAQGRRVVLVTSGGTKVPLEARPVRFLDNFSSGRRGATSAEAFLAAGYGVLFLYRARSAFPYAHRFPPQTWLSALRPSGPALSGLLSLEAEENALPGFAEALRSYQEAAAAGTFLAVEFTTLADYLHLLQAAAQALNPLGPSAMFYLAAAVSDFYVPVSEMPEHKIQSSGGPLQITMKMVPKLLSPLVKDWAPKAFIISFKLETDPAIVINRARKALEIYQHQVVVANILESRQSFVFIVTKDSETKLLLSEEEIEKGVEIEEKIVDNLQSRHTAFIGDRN", "UniProt Q9NR33": "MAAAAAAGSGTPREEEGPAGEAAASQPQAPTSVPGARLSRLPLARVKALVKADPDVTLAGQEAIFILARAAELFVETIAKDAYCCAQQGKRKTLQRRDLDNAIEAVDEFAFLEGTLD", "UniProt O15305": "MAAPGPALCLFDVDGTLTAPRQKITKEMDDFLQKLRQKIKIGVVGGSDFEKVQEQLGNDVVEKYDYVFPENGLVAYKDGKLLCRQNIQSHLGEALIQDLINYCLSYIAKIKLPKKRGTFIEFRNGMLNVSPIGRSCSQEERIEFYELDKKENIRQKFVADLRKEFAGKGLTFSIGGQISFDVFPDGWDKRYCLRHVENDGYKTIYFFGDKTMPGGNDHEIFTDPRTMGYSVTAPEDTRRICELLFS", "UniProt Q14181": "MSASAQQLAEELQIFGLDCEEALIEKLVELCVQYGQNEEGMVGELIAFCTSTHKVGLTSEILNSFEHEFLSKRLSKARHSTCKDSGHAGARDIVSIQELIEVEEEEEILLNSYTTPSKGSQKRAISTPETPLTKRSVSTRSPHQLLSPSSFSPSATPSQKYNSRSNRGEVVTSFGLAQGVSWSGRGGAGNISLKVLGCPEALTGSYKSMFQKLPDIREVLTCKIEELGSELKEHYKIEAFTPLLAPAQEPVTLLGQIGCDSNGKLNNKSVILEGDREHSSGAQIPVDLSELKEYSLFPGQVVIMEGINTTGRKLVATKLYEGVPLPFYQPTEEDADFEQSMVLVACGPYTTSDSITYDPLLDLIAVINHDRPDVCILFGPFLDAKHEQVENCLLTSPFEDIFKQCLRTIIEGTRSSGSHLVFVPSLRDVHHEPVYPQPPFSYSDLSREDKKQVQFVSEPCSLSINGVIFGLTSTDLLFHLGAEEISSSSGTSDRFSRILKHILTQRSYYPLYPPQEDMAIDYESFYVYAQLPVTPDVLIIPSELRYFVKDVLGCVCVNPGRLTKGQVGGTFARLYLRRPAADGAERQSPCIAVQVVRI"}, "source": "the supplement of paper PMC10849652", "note": "This is one part of the list."}
{"compound": "Cc1sc2c(c1C)C(c1ccc(Cl)cc1)=N[C@@H](CC(=O)OC(C)(C)C)c1nnc(C)n1-2", "assay": "log2 fold change, soluble protein after heating vs DMSO (PISA); higher = thermal stabilisation; K562 lysate, 10 uM; active = over 0.2 and 3.5 SD of the protein, either way, in both replicates (recomputed)", "outline": "(§1)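 K562 pellets were dounce-homogenised in PBS pH 7.4 with 1 mM MgCl2, and the crude extract at 1 mg/mL protein was treated with 10 μM compound for 30 min. Aliquots were heated for 3 min across 48°C-58°C, pooled, and brought to 0.5% NP-40 at 4°C; soluble protein was the supernatant after 21,000xg for 90 min. Soluble protein was quantified by TMTpro 16plex LC-MS/MS with channel sums equalised, and reported as log2 fold change in thermal stability against DMSO controls, with values from duplicates.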"}
{"target": "PON2 (UniProt Q15165)", "log2 fold change": "inactive: -0.099"}
{"target": "POLR2A, A0A590UJN4", "log2 fold change": "inactive: 0.008"}
{"target": "POP7 (UniProt O75817)", "log2 fold change": "inactive: 0.023"}
{"target": "PMF1 (UniProt Q6P1K2)", "log2 fold change": "inactive: -0.031"}
{"target": "PNPLA6 (UniProt Q8IY17)", "log2 fold change": "inactive: 0.014"}
{"target": "PLOD1 (UniProt Q02809)", "log2 fold change": "inactive: -0.01"}
{"target": "POGLUT1 (UniProt Q8NBL1)", "log2 fold change": "inactive: -0.046"}
{"target": "PLP2 (UniProt Q04941)", "log2 fold change": "inactive: 0.159"}
{"target": "PLOD2 isoform 2 (UniProt O00469)", "log2 fold change": "inactive: -0.391"}
{"target": "PLRG1 (UniProt O43660)", "log2 fold change": "inactive: -0.006"}
{"target": "PNO1 (UniProt Q9NRX1)", "log2 fold change": "inactive: -0.003"}
{"target": "PPA2 (UniProt Q9H2U2)", "log2 fold change": "inactive: -0.013"}
{"target": "PPAT (UniProt Q06203)", "log2 fold change": "inactive: -0.006"}
{"target": "POMP (UniProt Q9Y244)", "log2 fold change": "inactive: -0.036"}
{"target": "POP1 (UniProt Q99575)", "log2 fold change": "inactive: -0.011"}
{"target": "POFUT1 (UniProt Q9H488)", "log2 fold change": "inactive: 0.043"}
{"target": "POLA1 (UniProt P09884)", "log2 fold change": "inactive: -0.002"}
{"target": "PNKD isoform 2 (UniProt Q8N490)", "log2 fold change": "inactive: -0.052"}
{"target": "POMK (UniProt Q9H5K3)", "log2 fold change": "inactive: 0.005"}
{"target": "PNPO (UniProt Q9NVS9)", "log2 fold change": "inactive: 0.056"}
{"target": "POLR1C (UniProt O15160)", "log2 fold change": "inactive: -0.026"}
{"target": "PLGRKT (UniProt Q9HBL7)", "log2 fold change": "inactive: 0.143"}
{"target": "POLRMT (UniProt O00411)", "log2 fold change": "inactive: 0.051"}
{"target": "PLK1 (UniProt P53350)", "log2 fold change": "inactive: -0.026"}
{"target": "POU2F1 isoform 6 (UniProt P14859)", "log2 fold change": "inactive: 0.02"}
{"target": "POLR2E (UniProt P19388)", "log2 fold change": "inactive: -0.049"}
{"target": "POLR2F (UniProt P61218)", "log2 fold change": "inactive: 0.381"}
{"target": "PPCS (UniProt Q9HAB8)", "log2 fold change": "inactive: 0.06"}
{"target": "POLR2G (UniProt P62487)", "log2 fold change": "inactive: 0.007"}
{"target": "POLE4 (UniProt Q9NR33)", "log2 fold change": "inactive: -0.006"}
{"target": "PMM2 (UniProt O15305)", "log2 fold change": "inactive: 0.069"}
{"target": "POLA2 (UniProt Q14181)", "log2 fold change": "inactive: -0.005"}
{"target": "POLG (UniProt P54098)", "log2 fold change": "inactive: -0.019"}
{"compound": "c1ccc([C@@H]2C[C@H]2NC2CCNCC2)cc1", "assay": "log2 fold change, soluble protein after heating vs DMSO (PISA); higher = thermal stabilisation; K562 lysate, 10 uM; active = over 0.2 and 3.5 SD of the protein, either way, in both replicates (recomputed)", "outline": "as §1"}
{"target": "PON2 (UniProt Q15165)", "log2 fold change": "inactive: 0.068"}
{"target": "POLR2A, A0A590UJN4", "log2 fold change": "inactive: 0.005"}
{"target": "POP7 (UniProt O75817)", "log2 fold change": "inactive: -0.052"}
{"target": "PMF1 (UniProt Q6P1K2)", "log2 fold change": "inactive: 0.091"}
{"target": "PNPLA6 (UniProt Q8IY17)", "log2 fold change": "inactive: 0.035"}
{"target": "PLOD1 (UniProt Q02809)", "log2 fold change": "inactive: 0.017"}
{"target": "POGLUT1 (UniProt Q8NBL1)", "log2 fold change": "inactive: 0.02"}
{"target": "PLP2 (UniProt Q04941)", "log2 fold change": "inactive: -0.09"}
{"target": "PLRG1 (UniProt O43660)", "log2 fold change": "inactive: -0.035"}
{"target": "PNO1 (UniProt Q9NRX1)", "log2 fold change": "inactive: 0.04"}
{"target": "PPA2 (UniProt Q9H2U2)", "log2 fold change": "inactive: 0.007"}
{"target": "PPAT (UniProt Q06203)", "log2 fold change": "inactive: 0.048"}
{"target": "POMP (UniProt Q9Y244)", "log2 fold change": "inactive: 0.061"}
{"target": "POP1 (UniProt Q99575)", "log2 fold change": "inactive: 0.005"}
{"target": "POFUT1 (UniProt Q9H488)", "log2 fold change": "inactive: 0.016"}
{"target": "POLA1 (UniProt P09884)", "log2 fold change": "inactive: 0.002"}
{"target": "PNKD isoform 2 (UniProt Q8N490)", "log2 fold change": "inactive: 0.025"}
{"target": "POMK (UniProt Q9H5K3)", "log2 fold change": "inactive: 0.023"}
{"target": "PNPO (UniProt Q9NVS9)", "log2 fold change": "inactive: 0.071"}
{"target": "POLR1C (UniProt O15160)", "log2 fold change": "inactive: 0.028"}
{"target": "POLRMT (UniProt O00411)", "log2 fold change": "inactive: 0.05"}
{"target": "PLK1 (UniProt P53350)", "log2 fold change": "inactive: 0.084"}
{"target": "POU2F1 isoform 6 (UniProt P14859)", "log2 fold change": "inactive: 0.052"}
{"target": "POLR2E (UniProt P19388)", "log2 fold change": "inactive: -0.004"}
{"target": "POLR2F (UniProt P61218)", "log2 fold change": "inactive: 0.359"}
{"target": "PPCS (UniProt Q9HAB8)", "log2 fold change": "inactive: 0.058"}
{"target": "POLR2G (UniProt P62487)", "log2 fold change": "inactive: -0.108"}
{"target": "POLE4 (UniProt Q9NR33)", "log2 fold change": "inactive: 0.013"}
{"target": "PMM2 (UniProt O15305)", "log2 fold change": "inactive: -0.008"}
{"target": "POLA2 (UniProt Q14181)", "log2 fold change": "inactive: 0.026"}
{"target": "POLG (UniProt P54098)", "log2 fold change": "inactive: -0.173"}
